Percent effect of library compounds

Sequences of proteins named here, by UniProt entry; tags and fusion partners are left off.
UniProt I6X8D2, whole entry: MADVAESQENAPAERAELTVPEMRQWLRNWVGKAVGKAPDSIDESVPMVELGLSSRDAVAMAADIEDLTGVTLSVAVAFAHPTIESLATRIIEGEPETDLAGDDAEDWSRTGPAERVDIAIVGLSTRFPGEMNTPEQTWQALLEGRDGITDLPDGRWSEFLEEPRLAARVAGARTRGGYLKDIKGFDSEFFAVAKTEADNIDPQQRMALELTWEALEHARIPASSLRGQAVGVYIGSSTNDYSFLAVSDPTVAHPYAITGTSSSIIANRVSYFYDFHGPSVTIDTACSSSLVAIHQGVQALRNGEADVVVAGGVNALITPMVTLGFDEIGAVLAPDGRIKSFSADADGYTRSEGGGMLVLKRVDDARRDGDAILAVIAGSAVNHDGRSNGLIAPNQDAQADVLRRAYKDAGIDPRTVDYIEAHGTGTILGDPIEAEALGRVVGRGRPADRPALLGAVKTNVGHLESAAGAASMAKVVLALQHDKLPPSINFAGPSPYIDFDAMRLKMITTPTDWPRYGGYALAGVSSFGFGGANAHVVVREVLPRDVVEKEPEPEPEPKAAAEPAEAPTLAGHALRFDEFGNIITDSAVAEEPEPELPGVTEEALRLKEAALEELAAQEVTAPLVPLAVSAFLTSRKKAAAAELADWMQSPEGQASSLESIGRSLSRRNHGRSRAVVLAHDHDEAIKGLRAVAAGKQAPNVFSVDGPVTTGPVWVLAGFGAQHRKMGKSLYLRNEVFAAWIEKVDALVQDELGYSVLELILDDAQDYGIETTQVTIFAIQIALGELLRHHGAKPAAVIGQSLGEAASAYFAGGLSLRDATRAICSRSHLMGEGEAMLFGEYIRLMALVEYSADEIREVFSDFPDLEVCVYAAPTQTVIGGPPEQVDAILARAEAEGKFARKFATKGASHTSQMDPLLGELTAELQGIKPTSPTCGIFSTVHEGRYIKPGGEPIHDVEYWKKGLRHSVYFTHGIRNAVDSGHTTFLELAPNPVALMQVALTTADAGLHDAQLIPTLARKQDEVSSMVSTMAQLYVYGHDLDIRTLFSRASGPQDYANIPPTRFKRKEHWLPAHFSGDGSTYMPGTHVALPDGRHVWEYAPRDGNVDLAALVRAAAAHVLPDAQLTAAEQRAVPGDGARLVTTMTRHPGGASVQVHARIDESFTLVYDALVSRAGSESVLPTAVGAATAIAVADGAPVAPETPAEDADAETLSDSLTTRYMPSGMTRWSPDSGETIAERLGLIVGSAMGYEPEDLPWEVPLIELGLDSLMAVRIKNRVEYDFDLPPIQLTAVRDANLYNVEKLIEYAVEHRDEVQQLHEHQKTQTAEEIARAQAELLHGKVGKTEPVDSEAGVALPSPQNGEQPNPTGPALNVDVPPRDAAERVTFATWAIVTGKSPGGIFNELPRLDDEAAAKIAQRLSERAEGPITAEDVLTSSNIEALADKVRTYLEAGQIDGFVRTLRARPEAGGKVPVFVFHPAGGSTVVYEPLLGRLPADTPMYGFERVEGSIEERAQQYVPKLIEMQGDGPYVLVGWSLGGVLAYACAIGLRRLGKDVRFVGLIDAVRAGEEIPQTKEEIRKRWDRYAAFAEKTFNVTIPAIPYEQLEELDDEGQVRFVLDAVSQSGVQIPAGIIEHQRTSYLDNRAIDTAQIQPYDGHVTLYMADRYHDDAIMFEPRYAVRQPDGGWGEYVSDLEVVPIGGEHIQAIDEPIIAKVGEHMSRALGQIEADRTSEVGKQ
UniProt P9WPC5, whole entry: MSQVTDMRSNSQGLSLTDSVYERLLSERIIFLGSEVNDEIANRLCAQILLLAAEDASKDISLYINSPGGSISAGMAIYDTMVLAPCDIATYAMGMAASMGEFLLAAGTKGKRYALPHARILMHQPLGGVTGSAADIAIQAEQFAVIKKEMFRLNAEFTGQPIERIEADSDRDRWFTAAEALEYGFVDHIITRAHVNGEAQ
UniProt P9WPC3, whole entry partner: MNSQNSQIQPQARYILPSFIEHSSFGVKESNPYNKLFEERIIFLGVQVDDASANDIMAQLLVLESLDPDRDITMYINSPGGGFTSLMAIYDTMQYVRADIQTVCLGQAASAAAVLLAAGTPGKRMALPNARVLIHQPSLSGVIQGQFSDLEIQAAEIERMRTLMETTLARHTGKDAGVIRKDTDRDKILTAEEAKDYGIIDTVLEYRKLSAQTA

Measurements from “University of Dundee, Small-Polar-MMV Screening Library” (2021), ChEMBL document CHEMBL3988442.

Leishmania in macrophages: 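Cell assay of Leishmania donovani living inside macrophages; the read-out is not stated. Tested at 30 µM. Direction is inferred from retests: higher values go with stronger inhibition. Of about 69,000 compounds tested this way, about 1,000 (1.5%) reached 50% or more in at least one test.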
Pks13 thioesterase: 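Enzyme assay of the thioesterase domain of polyketide synthase 13; the read-out is not stated. Target: Polyketide synthase Pks13, Mycobacterium tuberculosis (UniProt I6X8D2). Compounds at 30 µM. Higher reads as stronger inhibition (inferred from which compounds were picked for retests). Size under these conditions: about 67,000 compounds, about 300 of them at 50% or above in at least one test.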
ClpP1P2: 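Protease assay of ClpP1P2, read by the AMC dye that it sets free. Target: ClpP1P2, Mycobacterium tuberculosis (UniProt P9WPC5 and UniProt P9WPC3). Compounds at 50 µM. Direction is inferred from only a few compounds that gave an IC50; most scored high, so higher reads as stronger inhibition. Most other retested compounds had strongly negative values. About 69,000 compounds were tested under these conditions; 0.015% (about 10) showed 50% or more at least once.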
T. brucei: 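Whole-parasite assay of Trypanosoma brucei over 72 hours; the read-out is not stated. Tested at 30 µM. Direction is inferred from retests: higher values go with stronger inhibition. Values scatter widely below zero; nearly all retest evidence comes from the higher of the two concentrations used. Of about 64,000 compounds tested this way, about 940 (1.5%) reached 50% or more in at least one test.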

Results are given as percent effect.
How 0% and 100% were set is not recorded. Most values in the screen are low, and negative values occur.
This is an unselected part of the compounds tested.
Two or more numbers in one place are separate tests of the same structure; such repeats can differ widely.

- O=C(O)C(F)(F)F.[H][C@]12C[C@H](CN(C)C)O[C@@]1([H])CN(C(=O)c1ccno1)C2 : Leishmania in macrophages: 31.88%; T. brucei: -76.99%
- Cc1cc(NC2CCCN(Cc3ccc(F)cc3)C2)n2nc(C)cc2n1 (centres undefined) : Leishmania in macrophages: 21.19%; Pks13 thioesterase: -32.61%; ClpP1P2: -10.32%; T. brucei: -8.248%
- CCc1ccc(C(=O)N2CCCC(n3nc(C)nc3C)C2)o1 (centres undefined) : Leishmania in macrophages: 11.81%; Pks13 thioesterase: -24.68%; ClpP1P2: -24.74%
- N#Cc1cccc(OCc2ccoc2C(=O)N2CCCCCC2)c1 : Leishmania in macrophages: -15.92%; Pks13 thioesterase: -19.51%; ClpP1P2: -19.9%
- CN(CCOc1cccc(CNS(C)(=O)=O)c1)C1CCOCC1 : Leishmania in macrophages: 16.18%; ClpP1P2: -20.12%; T. brucei: -32.59%
- Cc1c(Br)cccc1C(=O)NCC1CCCNC1.Cl (centres undefined) : Leishmania in macrophages: -13.1%; T. brucei: -2.023%
- CCC(NC(=O)c1ccco1)c1ccccc1OCC(=O)N1CCCC1 (centres undefined) : Leishmania in macrophages: 18.8%; Pks13 thioesterase: -10.81%; ClpP1P2: 25.63%; T. brucei: -14.51%
- Cc1ccc(C(=O)N2CCn3cnc(COCC4CC4)c3C2)cn1.O=C(O)C(F)(F)F : Leishmania in macrophages: 3.085% and 7.589%; T. brucei: -57.78%
- CCn1c(C)nnc1CN(C)C1CCN(Cc2ccccn2)C1 (centres undefined) : Leishmania in macrophages: 13.7%; Pks13 thioesterase: -19.1%; ClpP1P2: 7.715%; T. brucei: -14.69%
- CC(=O)N1CCC(CCc2ccnc(Nc3ccccn3)c2)CC1 : Leishmania in macrophages: 20.26%; Pks13 thioesterase: -22.32%; ClpP1P2: 24.43%; T. brucei: 18.19%
- O=C(O)C(F)(F)F.[H][C@@]12CN(C(=O)c3cnccn3)C[C@]1([H])C(=O)N(Cc1cccc(C)n1)C2 : Leishmania in macrophages: -6.6%; T. brucei: -20.7%
- CCOCCN1CCCC1CS(N)(=O)=O (centres undefined) : Leishmania in macrophages: -7.831%; Pks13 thioesterase: 2.047%; ClpP1P2: -8.402%; T. brucei: -1.345%
- Cc1n[nH]c(SCC(=O)N[C@@H](C)C(N)=O)n1 : Leishmania in macrophages: 13.75%; Pks13 thioesterase: -5.315%; ClpP1P2: -16.96%; T. brucei: -47.92%
- COc1ccc(C)cc1CNCc1ccc(-n2nc(C)cc2C)nc1 : Leishmania in macrophages: -17.53%; Pks13 thioesterase: -5.763%; ClpP1P2: 9.373%; T. brucei: -31.15%
- O=C(O)C(F)(F)F.[H][C@]12CN(Cc3cccc(Cl)c3)C[C@@]1([H])OCCN(C(C)=O)C2 : Leishmania in macrophages: 20.36%; T. brucei: -92.39%
- CN(C)CCOc1cccc(CN2CCCC3(C2)CN(C)C(=O)O3)c1 (centres undefined) : Leishmania in macrophages: 28.57%; Pks13 thioesterase: -1.891%; ClpP1P2: 25.65%; T. brucei: -16.44%
- [H][C@@]12CCCO[C@]1([H])[C@H](NC(=O)c1cnn(C)c1)CN2Cc1ccoc1 : Leishmania in macrophages: 42.05%; T. brucei: -66.7%
- CN(C)CCOCC1CN(Cc2cccc(F)c2)Cc2nccn2C1.O=C(O)C(F)(F)F.O=C(O)C(F)(F)F (centres undefined) : Leishmania in macrophages: 28.81%; T. brucei: -26.33%
- COCCN1CCCCC12CC(=O)N(c1cccc(C#N)c1)C2 (centres undefined) : Pks13 thioesterase: -11.46%; ClpP1P2: -9.519%
- CCCc1noc(CN2CCCCC2Cn2cncn2)n1 (centres undefined) : Leishmania in macrophages: 10.08%; Pks13 thioesterase: -17.88%; ClpP1P2: -15.42%; T. brucei: 10.37%
- CC(C)CC(=O)N1Cc2ccccc2CC1C(=O)Nc1nncs1 (centres undefined) : Leishmania in macrophages: 24.61%; Pks13 thioesterase: -5.941%; ClpP1P2: 1.615%; T. brucei: 3.055%
- O=C(CCCc1cccs1)N1CCC(N2CCNC2=O)CC1 : Leishmania in macrophages: -22.99%; Pks13 thioesterase: 1.465%; ClpP1P2: -17.16%
- O=C(NC[C@H]1O[C@H](Cc2cc(-c3ccccn3)on2)CC[C@@H]1O)C1CC1 : Leishmania in macrophages: 22.79%; Pks13 thioesterase: -9.468%; ClpP1P2: 5.489%; T. brucei: 42.95%
- C=C(C)COc1ccc(C(CC(=O)OC)c2oc(C)cc(=O)c2O)cc1 (centres undefined) : Leishmania in macrophages: 36.48% and -2.301%; Pks13 thioesterase: -28.78%; ClpP1P2: -4.065%; T. brucei: 3.938%